Results on 42 substances are retold here after patent publication US10064928B2, “Peptides and combination of peptides for use in immunotherapy against CLL and other cancers” (IMMATICS BIOTECHNOLOGIES GMBH, priority 2015, dated 2018).

For series [1], the system named is mRNA of source genes in tumors compared to a panel of normal tissues. The series can be described thus: Expression profiling of source genes by RNAseq (expression scores). Also noted: species or system human; key: very highly over-expressed in tumors compared to a panel of normal tissues (+++); highly over-expressed in tumors compared to a panel of normal tissues (++); over-expressed in tumors compared to a panel of normal tissues (+). Particulars: expression score of the source gene, tumors vs panel of normal tissues.

The test system of series [2] is CLL samples compared to a panel of normal tissues. As to the kind of experiment: Identification and label-free relative LC-MS quantitation of HLA-presented peptides (presentation profiles and scores). Set-up: species or system human; key: very highly over-presented on tumors compared to a panel of normal tissues (+++); highly over-presented on tumors compared to a panel of normal tissues (++); over-presented on tumors compared to a panel of normal tissues (+). Particulars: presentation score; over-presentation on tumors (CLL samples) compared to a panel of normal tissues.

The subject of series [3] is other tumor types (e.g. non-Hodgkin lymphoma, lung cancer). As to the kind of experiment: Presentation of the peptides on additional tumor types (LC-MS, Tables 4A/4B, FIG. 1). Also noted: species or system human. Particulars: for Additional Entities: Table 4B: additional tumour types with over-presentation (including specific presentation) on more than 5% of the measured tumour samples, or presentation on more than 5% with ratio of geometric means tumour vs normal tissues larger than 3, extended normal tissue panel; for Other relevant organs/diseases: Table 4A: additional tumor types where the peptide was over-presented on more than 5% of the measured tumor samples, or presented on more than 5% with ratio of geometric means tumor vs normal tissues larger than 3.

For part of these data: Expression values are those of the mRNA of the gene that encodes the peptide; a gene is named only where it was looked up.

With “107: peptide found in ATM (gene looked up) (ILYNLYDLL; listed as Homo sapiens) [compound 107]”, the “Gene Expression” value in series [1] is reported as “++”. In addition, the “Peptide Presentation” value in series [2] is on record as “++”. Also, in series [3], the “Additional Entities” value is given as “Melanoma”.

As for “74: peptide found in TLR9 (gene looked up) (GLLRASFLL; listed as Homo sapiens) [compound 74]”, the “Gene Expression” value in series [1] is on record as “++”. For the same substance, the “Peptide Presentation” value in series [2] was “+++”. Further, in series [3], the Other relevant organs/diseases result is reported as “NHL, AML, BRCA”.

Take “118: peptide found in NUP210 (gene looked up) (RLLILENILL; listed as Homo sapiens) [compound 118]”: the “Gene Expression” value in series [1] is recorded as “++”. Moreover, the “Peptide Presentation” value in series [2] is “+++”. For the same substance, in series [3], the Other relevant organs/diseases result is “NHL” and the “Additional Entities” value is “HNSCC”.

Regarding “121: peptide found in NUP210 (gene looked up) (RLYEITIEV; listed as Homo sapiens) [compound 121]”, the “Gene Expression” value in series [1] was “++”. Also, the “Peptide Presentation” value in series [2] is given as “++”. Besides, the Other relevant organs/diseases entry in series [3] is listed as “SCLC, NHL, AML, BRCA, OC”.

For the substance “309: peptide found in PLCG2 (gene looked up) (ILYGTQFVL; listed as Homo sapiens) [compound 309]”, the “Gene Expression” value in series [1] was “++”. Besides, in series [2], the “Peptide Presentation” value was “+”. Moreover, the Other relevant organs/diseases result in series [3] is reported as “NHL”.

With “120: peptide found in NUP210 (gene looked up) (AIDAALTSV; listed as Homo sapiens) [compound 120]”, the “Gene Expression” value in series [1] is recorded as “++”. Also, the Other relevant organs/diseases result in series [3] is on record as “NHL, AML”.

Take “91: peptide found in PLCG2 (gene looked up) (ILDLNTYNV; listed as Homo sapiens) [compound 91]”: in series [1], the “Gene Expression” value is reported as “+”. Moreover, in series [3], the Other relevant organs/diseases entry is “NHL” and the “Additional Entities” value was “AML”.

For the substance “257: peptide found in HVCN1 (gene looked up) (RIINGIIISV; listed as Homo sapiens) [compound 257]”, in series [1], the “Gene Expression” value was “+++”. Besides, in series [3], the Other relevant organs/diseases entry is “NHL” and the “Additional Entities” value is reported as “AML”.

Turning to “106: peptide found in ATM (gene looked up) (FMASHLDYL; listed as Homo sapiens) [compound 106]”, the “Gene Expression” value in series [1] is “+”. Besides, in series [2], the “Peptide Presentation” value is reported as “+++”.

As for “75: peptide found in TLR9 (gene looked up) (GLSIFAQDLRL; listed as Homo sapiens) [compound 75]”, the “Gene Expression” value in series [1] is recorded as “++”. Further, the Other relevant organs/diseases result in series [3] was “NHL”.

Consider “31: peptide found in PARP15 (gene looked up) (ELMHGVAGV; listed as Homo sapiens) [compound 31]”, for which, in series [1], the “Gene Expression” value is “+++”. Besides, the “Peptide Presentation” value in series [2] was “++”.

For “2 (ALHRPDVYL; listed as Homo sapiens) [compound 2]”, the “Peptide Presentation” value in series [2] is “+++”. In addition, in series [3], the Other relevant organs/diseases result is “NHL”.

In the case of “314 (LMKDCEAEV; listed as Homo sapiens) [compound 314]”, the “Peptide Presentation” value in series [2] is given as “++”. For the same substance, in series [3], the Other relevant organs/diseases result is “NHL”.

Regarding “199 (YLVELSSLL; listed as Homo sapiens) [compound 199]”, the “Peptide Presentation” value in series [2] is listed as “+++”. In series [3], the Other relevant organs/diseases result was “HCC, NHL, AML” and the “Additional Entities” value is “Melanoma”.

Take “301: peptide found in NUP210 (gene looked up) (AASPIITLV; listed as Homo sapiens) [compound 301]”: the “Gene Expression” value in series [1] was “+”.

On to “103 (KLGGTPAPA; listed as Homo sapiens) [compound 103]”, for which the “Peptide Presentation” value in series [2] is recorded as “++”. Further, the Other relevant organs/diseases result in series [3] was “NHL”.

On to “162 (SMKDDLENV; listed as Homo sapiens) [compound 162]”, for which, in series [2], the “Peptide Presentation” value was “+++”. Besides, in series [3], the Other relevant organs/diseases result is “NSCLC, SCLC, RCC, HCC, NHL, BRCA, Melanoma, Esophageal Cancer, Uterine Cancer, Gallbladder Cancer, Bile Duct Cancer” and the “Additional Entities” value was “PC, OC, HNSCC”.

On to “160 (SLSFLVPSL; listed as Homo sapiens) [compound 160]”, for which, in series [2], the “Peptide Presentation” value is “+++”. Further, in series [3], the Other relevant organs/diseases result is recorded as “NHL, AML, Urinary bladder cancer” and the “Additional Entities” value was “Uterine Cancer”.

“27 (AVLGLVWLL; listed as Homo sapiens) [compound 27]”: the “Peptide Presentation” value in series [2] is “++”. Further, in series [3], the Other relevant organs/diseases result was “NSCLC, NHL, Uterine Cancer” and the “Additional Entities” value is “HNSCC”.

On to “289 (ILEEQPMDMLL; listed as Homo sapiens) [compound 289]”, for which the “Peptide Presentation” value in series [2] is “+++”. Also, the “Additional Entities” value in series [3] was “Uterine Cancer”.

For the substance “43 (FLLGPEALSFA; listed as Homo sapiens) [compound 43]”, the “Peptide Presentation” value in series [2] was “+++”. Further, the Other relevant organs/diseases result in series [3] is “NHL, AML”.

Turning to “21 (ALWAGLLTL; listed as Homo sapiens) [compound 21]”, the “Peptide Presentation” value in series [2] is listed as “+++”. For the same substance, the Other relevant organs/diseases result in series [3] was “NHL”.

With “210 (KLLVQDFFL; listed as Homo sapiens) [compound 210]”, the “Peptide Presentation” value in series [2] is given as “+++”. Moreover, the Other relevant organs/diseases entry in series [3] is listed as “HCC, NHL”.

As to “9 (ALCDTLITV; listed as Homo sapiens) [compound 9]”, the “Peptide Presentation” value in series [2] is given as “+++”. In addition, the Other relevant organs/diseases result in series [3] is listed as “NHL”.

With “100 (ILNNEVFAI; listed as Homo sapiens) [compound 100]”, the “Peptide Presentation” value in series [2] is recorded as “+”. Also, in series [3], the Other relevant organs/diseases result is “NHL, AML”.

With “148 (SIVASLITV; listed as Homo sapiens) [compound 148]”, in series [2], the “Peptide Presentation” value was “+++”. Further, the Other relevant organs/diseases entry in series [3] is “NHL, AML”.

Consider “82 (GLQSGVDIGV; listed as Homo sapiens) [compound 82]”, for which the “Peptide Presentation” value in series [2] is “+”. For the same substance, in series [3], the Other relevant organs/diseases result was “NHL” and the “Additional Entities” value was “AML, Esophageal Cancer, PC”.

In the case of “41 (FLDPSLDPLL; listed as Homo sapiens) [compound 41]”, in series [2], the “Peptide Presentation” value is on record as “+++”. The “Additional Entities” value in series [3] was “Uterine Cancer”.

For the substance “32 (FIDKFTPPV; listed as Homo sapiens) [compound 32]”, the “Peptide Presentation” value in series [2] was “+++”. In series [3], the Other relevant organs/diseases result is reported as “NHL”.

Turning to “359 (FMQDPMEVFV; listed as Homo sapiens) [compound 359]”, in series [2], the “Peptide Presentation” value is listed as “++”. In series [3], the “Additional Entities” value is recorded as “Melanoma, NHL, NSCLC, OC”.

As to “58 (YIQQGIFSV; listed as Homo sapiens) [compound 58]”, in series [2], the “Peptide Presentation” value is “++”. The “Additional Entities” value in series [3] is “NHL, NSCLC”.

Turning to “363 (ITTEVVNELYV; listed as Homo sapiens) [compound 363]”, the “Peptide Presentation” value in series [2] is “+”. In addition, in series [3], the Other relevant organs/diseases result is “NHL, Melanoma” and the “Additional Entities” value is given as “BRCA”.

In the case of “291 (ILLNEDDLVTI; listed as Homo sapiens) [compound 291]”, the “Peptide Presentation” value in series [2] is on record as “+++”. In addition, in series [3], the Other relevant organs/diseases entry was “SCLC, NHL, Melanoma”.

Take “255 (YLFEEAISM; listed as Homo sapiens) [compound 255]”: in series [2], the “Peptide Presentation” value is recorded as “+”. Moreover, the Other relevant organs/diseases result in series [3] is “NHL”.

Turning to “278 (YLDDLLPKL; listed as Homo sapiens) [compound 278]”, the “Peptide Presentation” value in series [2] is “++”. In series [3], the Other relevant organs/diseases entry is listed as “PC, NHL”.

On to “212 (NIIEAINELLV; listed as Homo sapiens) [compound 212]”, for which the “Peptide Presentation” value in series [2] is given as “++”. Besides, in series [3], the Other relevant organs/diseases entry is “NHL, BRCA, Melanoma” and the “Additional Entities” value was “Uterine Cancer, AML, HNSCC”.

Regarding “128 (LLSEEEYHL; listed as Homo sapiens) [compound 128]”, the “Peptide Presentation” value in series [2] is given as “+++”. Further, the “Additional Entities” value in series [3] is “Urinary Bladder Cancer, NHL, HNSCC”.

Turning to “115 (LLFDKLYLL; listed as Homo sapiens) [compound 115]”, in series [2], the “Peptide Presentation” value is “+++”. For the same substance, in series [3], the “Additional Entities” value was “Uterine Cancer”.

Regarding “12 (ALGEDEITL; listed as Homo sapiens) [compound 12]”, the “Peptide Presentation” value in series [2] is reported as “+++”. Besides, the Other relevant organs/diseases result in series [3] is given as “NHL, AML, Melanoma”.

As for “220: peptide found in CXCR5 (gene looked up) (ALPEILFAKV; listed as Homo sapiens) [compound 220]”, the “Gene Expression” value in series [1] is “++”. Further, the Other relevant organs/diseases entry in series [3] is “NHL”.

For “377 (VVDGTCVAV; listed as Homo sapiens) [compound 377]”, the “Peptide Presentation” value in series [2] is “+”. In series [3], the Other relevant organs/diseases entry was “NHL, Melanoma” and the “Additional Entities” value is on record as “BRCA, Uterine Cancer, HNSCC”.

Take “320 (TIAPVTVAV; listed as Homo sapiens) [compound 320]”: in series [2], the “Peptide Presentation” value is recorded as “+”. Moreover, the Other relevant organs/diseases entry in series [3] is given as “NHL”.
